# The supplement of paper PMC5355238
# Counter-ions that a name gives are not always drawn. The list shows a part of the results. Most values lie at the level of the controls, where differences are scatter.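 Reh, a human leukemia cell line, is read out by flow cytometry as the median γH2AX antibody signal in S-phase cells; the score counts standard deviations from the median difference of each paired plate set. Scores above 2.5 were candidate hits; scores below -2 mark compounds lowering MK1775-induced damage.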
# System: Reh
# Experiment: Z' of S-phase gammaH2AX difference (drug + MK1775 minus drug alone) (Z-score); higher = stronger synergistic S-phase DNA damage with MK1775
# Settings: MK1775 concentration 400 nM; first compound 10 µM; 4 h
row,Compound,Z' of S-phase gammaH2AX difference (Z-score)
1,CN(C)c1cc2c(Nc3ccc4c(cnn4Cc4ccccc4)c3)ncnc2cn1 + C=CCn1c(=O)c2cnc(Nc3ccc(N4CCN(C)CC4)cc3)nc2n1-c1cccc(C(C)(C)O)n1 [MK1775],inactive: 1.28
2,COc1cc(Cc2cnc(N)nc2N)cc(OC)c1OC [Trimethoprim] + C=CCn1c(=O)c2cnc(Nc3ccc(N4CCN(C)CC4)cc3)nc2n1-c1cccc(C(C)(C)O)n1 [MK1775],inactive: -1.21
3,NC(=O)C(=O)O [Sodium Oxamate] + C=CCn1c(=O)c2cnc(Nc3ccc(N4CCN(C)CC4)cc3)nc2n1-c1cccc(C(C)(C)O)n1 [MK1775],inactive: 0.665
4,"FC(F)(F)c1cc(COC2CCCNC2c2ccccc2)cc(C(F)(F)F)c1 [L-733,060 hydrochloride] + C=CCn1c(=O)c2cnc(Nc3ccc(N4CCN(C)CC4)cc3)nc2n1-c1cccc(C(C)(C)O)n1 [MK1775]",inactive: 0.17
5,C[C@@H](Oc1cc(-n2cnc3ccc(CN4CCN(C)CC4)cc32)sc1C(N)=O)c1ccccc1C(F)(F)F + C=CCn1c(=O)c2cnc(Nc3ccc(N4CCN(C)CC4)cc3)nc2n1-c1cccc(C(C)(C)O)n1 [MK1775],inactive: -0.354
6,CC1(COc2ccc3c(c2)ncn3-c2ccc3cccc(N4CCC(N)CC4)c3n2)COC1 + C=CCn1c(=O)c2cnc(Nc3ccc(N4CCN(C)CC4)cc3)nc2n1-c1cccc(C(C)(C)O)n1 [MK1775],inactive: -1.27
7,NS(=O)(=O)c1cccc2c1c([N+](=O)[O-])cc1nc(O)c(O)nc12 [NBQX disodium] + C=CCn1c(=O)c2cnc(Nc3ccc(N4CCN(C)CC4)cc3)nc2n1-c1cccc(C(C)(C)O)n1 [MK1775],inactive: -0.233
8,N#CC(=C(/N)Sc1ccccc1N)/C(C#N)=C(/N)Sc1ccccc1N + C=CCn1c(=O)c2cnc(Nc3ccc(N4CCN(C)CC4)cc3)nc2n1-c1cccc(C(C)(C)O)n1 [MK1775],inactive: 1.36
9,NC(N)=NCc1cccc(I)c1 [m-Iodobenzylguanidine hemisulfate] + C=CCn1c(=O)c2cnc(Nc3ccc(N4CCN(C)CC4)cc3)nc2n1-c1cccc(C(C)(C)O)n1 [MK1775],inactive: 0.294
10,CC(=O)NCCc1c[nH]c2ccc(O)cc12 [N-Acetyl-5-hydroxytryptamine] + C=CCn1c(=O)c2cnc(Nc3ccc(N4CCN(C)CC4)cc3)nc2n1-c1cccc(C(C)(C)O)n1 [MK1775],inactive: -0.408
11,O=c1ccc2ccc(O)c(O)c2o1 [Daphnetin] + C=CCn1c(=O)c2cnc(Nc3ccc(N4CCN(C)CC4)cc3)nc2n1-c1cccc(C(C)(C)O)n1 [MK1775],inactive: -0.114
12,CN1CCC(=C2c3ccccc3CC(=O)c3sccc32)CC1 [Ketotifen fumarate] + C=CCn1c(=O)c2cnc(Nc3ccc(N4CCN(C)CC4)cc3)nc2n1-c1cccc(C(C)(C)O)n1 [MK1775],inactive: -0.697
13,COc1ccccc1N1CCN(CC(O)COc2cccc3ccccc23)CC1 (configuration not stated) [Naftopidil dihydrochloride] + C=CCn1c(=O)c2cnc(Nc3ccc(N4CCN(C)CC4)cc3)nc2n1-c1cccc(C(C)(C)O)n1 [MK1775],inactive: 0.17
14,O=C(O)CC[C@H]1CC[C@@](c2cc(F)ccc2F)(S(=O)(=O)c2ccc(Cl)cc2)CC1 + C=CCn1c(=O)c2cnc(Nc3ccc(N4CCN(C)CC4)cc3)nc2n1-c1cccc(C(C)(C)O)n1 [MK1775],inactive: 0.153
15,CCCN(CCC)C(=O)C(CCC(=O)O)NC(=O)c1ccccc1 (configuration not stated) [Proglumide] + C=CCn1c(=O)c2cnc(Nc3ccc(N4CCN(C)CC4)cc3)nc2n1-c1cccc(C(C)(C)O)n1 [MK1775],inactive: 0.102
16,CN1CCc2ccccc2Cc2[nH]c3ccccc3c2CC1 + C=CCn1c(=O)c2cnc(Nc3ccc(N4CCN(C)CC4)cc3)nc2n1-c1cccc(C(C)(C)O)n1 [MK1775],inactive: -0.388
17,CS(=O)(=O)CCNCc1ccc(-c2ccc3ncnc(Nc4ccc(OCc5cccc(F)c5)c(Cl)c4)c3c2)o1 [Lapatinib Ditosylate (Tykerb)] + C=CCn1c(=O)c2cnc(Nc3ccc(N4CCN(C)CC4)cc3)nc2n1-c1cccc(C(C)(C)O)n1 [MK1775],inactive: -0.381
18,COc1cc(Nc2ncc(F)c(Nc3ccc4c(n3)NC(=O)C(C)(C)O4)n2)cc(OC)c1OC [R406(free base)] + C=CCn1c(=O)c2cnc(Nc3ccc(N4CCN(C)CC4)cc3)nc2n1-c1cccc(C(C)(C)O)n1 [MK1775],inactive: -0.999
19,CS(=O)(=O)c1cccc(CNc2nc(Nc3ccc4c(c3)CCC(=O)N4)ncc2C(F)(F)F)c1 + C=CCn1c(=O)c2cnc(Nc3ccc(N4CCN(C)CC4)cc3)nc2n1-c1cccc(C(C)(C)O)n1 [MK1775],inactive: -1.12

row,Compound,Z' of S-phase gammaH2AX difference (Z-score)
1,S=C(Nc1ccccc1)Nc1nccs1 [1-Phenyl-3-(2-thiazolyl)-2-thiourea] + C=CCn1c(=O)c2cnc(Nc3ccc(N4CCN(C)CC4)cc3)nc2n1-c1cccc(C(C)(C)O)n1 [MK1775],inactive: -0.868
2,CSc1ccc(C(=O)c2[nH]c(=O)[nH]c2C)cc1 [Enoximone] + C=CCn1c(=O)c2cnc(Nc3ccc(N4CCN(C)CC4)cc3)nc2n1-c1cccc(C(C)(C)O)n1 [MK1775],inactive: -0.561
3,Cc1ccc(NC(=O)c2ccc(CN3CC[C@H](N(C)C)C3)c(C(F)(F)F)c2)cc1Nc1nccc(-c2cncnc2)n1 [Bafetinib (INNO-406)] + C=CCn1c(=O)c2cnc(Nc3ccc(N4CCN(C)CC4)cc3)nc2n1-c1cccc(C(C)(C)O)n1 [MK1775],inactive: -0.465
4,COc1ccc(-c2ccc(=N)n(CCCC(=O)O)n2)cc1 + C=CCn1c(=O)c2cnc(Nc3ccc(N4CCN(C)CC4)cc3)nc2n1-c1cccc(C(C)(C)O)n1 [MK1775],inactive: 0.028
5,CCCCCCCCCCCCCCCC(=O)NCCO [Palmitoylethanolamide] + C=CCn1c(=O)c2cnc(Nc3ccc(N4CCN(C)CC4)cc3)nc2n1-c1cccc(C(C)(C)O)n1 [MK1775],inactive: -1.15
6,CO[C@@H](C(=O)N1Cc2[nH]nc(NC(=O)c3ccc(N4CCN(C)CC4)cc3)c2C1)c1ccccc1 + C=CCn1c(=O)c2cnc(Nc3ccc(N4CCN(C)CC4)cc3)nc2n1-c1cccc(C(C)(C)O)n1 [MK1775],inactive: -0.901
7,CN1CCN(C2=Nc3cc(Cl)ccc3Nc3ccccc32)CC1 [Clozapine] + C=CCn1c(=O)c2cnc(Nc3ccc(N4CCN(C)CC4)cc3)nc2n1-c1cccc(C(C)(C)O)n1 [MK1775],inactive: 0.204
8,C=CC[C@H](N)C(=O)O [L-allylglycine] + C=CCn1c(=O)c2cnc(Nc3ccc(N4CCN(C)CC4)cc3)nc2n1-c1cccc(C(C)(C)O)n1 [MK1775],inactive: -0.464
9,Brc1ccc([C@H]2CN3CCSC3=N2)cc1 [S(-)-p-Bromotetramisole oxalate] + C=CCn1c(=O)c2cnc(Nc3ccc(N4CCN(C)CC4)cc3)nc2n1-c1cccc(C(C)(C)O)n1 [MK1775],inactive: 0.11
10,O=C(O)c1ccccc1Nc1ccccc1 [N-Phenylanthranilic acid] + C=CCn1c(=O)c2cnc(Nc3ccc(N4CCN(C)CC4)cc3)nc2n1-c1cccc(C(C)(C)O)n1 [MK1775],inactive: -0.321
11,NCC=CC(=O)O (stereo in doubt) [cis-4-Aminocrotonic acid] + C=CCn1c(=O)c2cnc(Nc3ccc(N4CCN(C)CC4)cc3)nc2n1-c1cccc(C(C)(C)O)n1 [MK1775],inactive: -0.0601
12,CC(=O)[C@H]1CC[C@H]2[C@@H]3CC=C4C[C@@H](OS(=O)(=O)O)CC[C@]4(C)[C@H]3CC[C@]12C [Pregnenolone sulfate sodium] + C=CCn1c(=O)c2cnc(Nc3ccc(N4CCN(C)CC4)cc3)nc2n1-c1cccc(C(C)(C)O)n1 [MK1775],inactive: 1.8
13,N#C/C(=C\c1ccc(O)c(O)c1)C(=O)c1ccc(O)c(O)c1 [Tyrphostin AG 538] + C=CCn1c(=O)c2cnc(Nc3ccc(N4CCN(C)CC4)cc3)nc2n1-c1cccc(C(C)(C)O)n1 [MK1775],inactive: 0.449
14,NC12CC3CC(CC(C3)C1)C2 [Amantadine hydrochloride] + C=CCn1c(=O)c2cnc(Nc3ccc(N4CCN(C)CC4)cc3)nc2n1-c1cccc(C(C)(C)O)n1 [MK1775],inactive: -0.2
15,CC1(C2CCCC2)Cc2cc(OCC(=O)O)c(Cl)c(Cl)c2C1=O (configuration not stated) + C=CCn1c(=O)c2cnc(Nc3ccc(N4CCN(C)CC4)cc3)nc2n1-c1cccc(C(C)(C)O)n1 [MK1775],inactive: 0.556
16,CCOC(=O)[C@]12CC1/C(=N\O)c1ccccc1O2 (some centres not stated) + C=CCn1c(=O)c2cnc(Nc3ccc(N4CCN(C)CC4)cc3)nc2n1-c1cccc(C(C)(C)O)n1 [MK1775],inactive: -0.234
17,NCCCCNCCCN [Spermidine trihydrochloride] + C=CCn1c(=O)c2cnc(Nc3ccc(N4CCN(C)CC4)cc3)nc2n1-c1cccc(C(C)(C)O)n1 [MK1775],inactive: 0.0951
18,Nc1ncn([C@H]2C[C@H](O)[C@@H](CO)O2)c(=O)n1 [Decitabine] + C=CCn1c(=O)c2cnc(Nc3ccc(N4CCN(C)CC4)cc3)nc2n1-c1cccc(C(C)(C)O)n1 [MK1775],inactive: 0.415

# Already shown: entries from further up.
row,Compound,Z' of S-phase gammaH2AX difference (Z-score)
13,N#C/C(=C\c1ccc(O)c(O)c1)C(=O)c1ccc(O)c(O)c1 [Tyrphostin AG 538] + C=CCn1c(=O)c2cnc(Nc3ccc(N4CCN(C)CC4)cc3)nc2n1-c1cccc(C(C)(C)O)n1 [MK1775],inactive: 0.449
14,NC12CC3CC(CC(C3)C1)C2 [Amantadine hydrochloride] + C=CCn1c(=O)c2cnc(Nc3ccc(N4CCN(C)CC4)cc3)nc2n1-c1cccc(C(C)(C)O)n1 [MK1775],inactive: -0.2
15,CC1(C2CCCC2)Cc2cc(OCC(=O)O)c(Cl)c(Cl)c2C1=O (configuration not stated) + C=CCn1c(=O)c2cnc(Nc3ccc(N4CCN(C)CC4)cc3)nc2n1-c1cccc(C(C)(C)O)n1 [MK1775],inactive: 0.556
16,CCOC(=O)[C@]12CC1/C(=N\O)c1ccccc1O2 (some centres not stated) + C=CCn1c(=O)c2cnc(Nc3ccc(N4CCN(C)CC4)cc3)nc2n1-c1cccc(C(C)(C)O)n1 [MK1775],inactive: -0.234
17,NCCCCNCCCN [Spermidine trihydrochloride] + C=CCn1c(=O)c2cnc(Nc3ccc(N4CCN(C)CC4)cc3)nc2n1-c1cccc(C(C)(C)O)n1 [MK1775],inactive: 0.0951
18,Nc1ncn([C@H]2C[C@H](O)[C@@H](CO)O2)c(=O)n1 [Decitabine] + C=CCn1c(=O)c2cnc(Nc3ccc(N4CCN(C)CC4)cc3)nc2n1-c1cccc(C(C)(C)O)n1 [MK1775],inactive: 0.415
